We go through four compounds from PubChem BioAssay AID624297 (National Center for Advancing Translational Sciences (NCATS), 2012).

The list shows a part of the results, in another mix than the full data. Inconclusive results are not listed. Activity calls are given as the source filed them. Calls follow the shape of the dose curve; as a rule, active = well fitted activation curve with a large enough effect; inconclusive = small, poorly fitted or top-dose-only effect; inactive = no such curve, though single readings can be large or run the other way.
Potency is read from the fitted curve at half-maximal effect.

A short description of the assay: A quantitative high throughput screen for small molecules that induce DNA re-replication in SW480 colon adenocarcinoma cells. Also: nearly all actives have a fitted effect of over 55% in size. As to re-replication activation: % of control where 0% means no effect. The conditions noted are these: Hoechst DNA content imaging, 48 h; series mostly up to 46.1 µM; re-replication activation: at the top concentration. The text has this: H Molecular Libraries Probe Production Network [MLPCN] NIH Chemical Genomics Center [NCGC] MLPCN Grant: Fast Track K99 CA136555 Assay Provider: Melvin DePamphilis, NICHD, NIH Assay Overview Eukaryotic cells normally restrict genome duplication to once per cell division. When this process is aberrant, DNA re-replication occurs when cells reinitiate DNA replication before the first round of replication is complete. DNA re-replication induces the DNA damage response, arrests cell proliferation, and triggers apoptosis. The cell cycle components cyclin A, Cdt-1, Cdc6 and geminin are critical regulators of this process and their misregulation results in DNA re-replication in normal and cancer cells. To identify compounds that induce re-replication in normal cells, an image-based assay was used to measure DNA content of nuclei, as detected by the fluorescent DNA binding dye, Hoechst. Cell nuclei were imaged by a fluorescence scanning plate imager and compounds that induce DNA re-replication were identified by the increase of nuclei with elevated fluorescence intensity
For screening, 250 cells in 5 uL/well were dispensed into black clear 1536-well plates (Aurora) using a solenoid-based dispenser. Following transfer of 23 nL compound or DMSO vehicle by a pin tool, the plates were incubated 48 hr at 37 C and 5% CO2. After addition of 1 uL/well Hoescht stain, the plates were incubated 40 min at 37 C, 5% CO2 and total intensity of fluorescent objects (nuclei) were enumerated by an Acumen Explorer Ex3 (TTP LabTech) fluorescence scanning plate imager (405 nm excitation, 500-530 nm emission). Keywords: NIH Roadmap, MLPCN, MLI, MLSMR, qHTS, NCGC, DNA replication, cancer
On to `CNC1CCc2cc(OC)c(OC)c(OC)c2-c2ccc(SC)c(=O)cc21` (centres undefined), for which the Potency was active: 5.2 nM. On the same count and under the same terms, under `COc1cc2c(c(OC)c1OC)-c1ccc(SC)c(=O)cc1C(N)CC2` (centres undefined) stands active: 58 nM. Take `CS(=O)(=O)Nc1cccc2[nH]ncc12`: the “re-replication activation” value is inactive: -32.5%. `COc1cc2c(c(OC)c1OC)-c1ccc(OC)c(=O)cc1C(N)CC2` (centres undefined): the Potency was active: 259 nM.
